# According to the supplement of paper PMC8728848:
# The list shows a part of the results.
# B1: SP15308F-bth-333-19-333 (Bacteroides thetaiotaomicron) (protein)
# chain: SCNNEWESEQYVQMVSFKAPVNAQGVTPIYIRYKPEGKVTYQLPLIVSGSTMNSKDLNVHVGLDLDTLDVLNVEHFGSRKELFFKPLENKYYEFPETVQIPAGECTSLLPIDFALKDLDQVDKWVLPLAIQSNDPSHNYQANPRKFYRRAMLRISPFNDYSGQYSATAYKVYFKGNEKEAIVPEYHTSYVIDDKTIFFYAGLIDIDRLDRKYYKIKFEFTEEKIDLQTRKLKISSDNEDINLVVKGQPSYTVEEEMDATRPYLKHIYVTINNLEYEFTDYTSVPGYPLEYVVKGSLTMERKINTQIPDEDQAIEW
# Legend:
# Experiment in all cases: glycan array binding signal (z-score within array); higher = stronger binding
# Details in all cases: glycan notation: IUPAC condensed, linker removed
# [1] = target: Neu5Ac(a2-3)Gal(b1-4)GlcNAc(b1-3)Gal(b1-4)GlcNAc(b1-3)Gal(b1-4)GlcNAc
# Procedure, shortened: (§1)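 The binding signal is a Z-score computed within each array and averaged over linkers. Arrays of the same protein sequence at different concentrations or buffers were also averaged together. Data originate from 3228 arrays in the Consortium for Functional Glycomics database, kept only where the protein sequence was available.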
# [2] = target: Neu5Ac(a2-3)Gal(b1-4)GlcNAc(b1-3)Gal(b1-4)GlcNAc(b1-3)Gal(b1-4)GlcNAc(b1-2)Man(a1-3)[Neu5Ac(a2-3)Gal(b1-4)GlcNAc(b1-3)Gal(b1-4)GlcNAc(b1-3)Gal(b1-4)GlcNAc(b1-2)Man(a1-6)]GalNAc
# Procedure, shortened: as §1
# [3] = target: Neu5Ac(a2-3)Gal(b1-4)GlcNAc(b1-3)Gal(b1-4)GlcNAc(b1-3)GalNAc
# Procedure, shortened: as §1
# [4] = target: Neu5Ac(a2-3)Gal(b1-4)GlcNAc(b1-3)Gal(b1-4)GlcNAc(b1-3)[Neu5Ac(a2-3)Gal(b1-4)GlcNAc(b1-3)Gal(b1-4)GlcNAc(b1-6)]GalNAc
# Procedure, shortened: as §1
# [5] = target: Neu5Ac(a2-3)Gal(b1-4)GlcNAc(b1-3)Gal(b1-4)GlcNAc(b1-6)[Gal(b1-3)]GalNAc
# Procedure, shortened: as §1
# [6] = target: Neu5Ac(a2-3)Gal(b1-4)GlcNAc(b1-3)Gal(b1-4)[Fuc(a1-3)]GlcNAc
# Procedure, shortened: as §1
# [7] = target: Neu5Ac(a2-3)Gal(b1-4)GlcNAc(b1-3)GalNAc
# Procedure, shortened: as §1
# [8] = target: Neu5Ac(a2-3)Gal(b1-4)GlcNAc(b1-3)[Neu5Ac(a2-3)Gal(b1-4)GlcNAc(b1-6)]GalNAc
# Procedure, shortened: as §1
# [9] = target: Neu5Ac(a2-3)Gal(b1-4)GlcNAc(b1-6)GalNAc
# Procedure, shortened: as §1
# [10] = target: Neu5Ac(a2-3)Gal(b1-4)GlcNAc(b1-6)[Gal(b1-3)]GalNAc
# Procedure, shortened: as §1
# [11] = target: Neu5Ac(a2-3)Gal(b1-4)GlcNAc(b1-6)[Neu5Ac(a2-3)Gal(b1-3)]GalNAc
# Procedure, shortened: as §1
# [12] = target: Neu5Ac(a2-3)Gal(b1-4)GlcNAc6S
# Procedure, shortened: as §1
# [13] = target: Neu5Ac(a2-3)Gal(b1-4)[Fuc(a1-3)]GlcNAc
# Procedure, shortened: as §1
# [14] = target: Neu5Ac(a2-3)Gal(b1-4)[Fuc(a1-3)]GlcNAc(b1-2)Man
# Procedure, shortened: as §1
# [15] = target: Neu5Ac(a2-3)Gal(b1-4)[Fuc(a1-3)]GlcNAc(b1-3)Gal
# Procedure, shortened: as §1
# [16] = target: Neu5Ac(a2-3)Gal(b1-4)[Fuc(a1-3)]GlcNAc(b1-3)Gal(b1-4)GlcNAc
# Procedure, shortened: as §1
# [17] = target: Neu5Ac(a2-3)Gal(b1-4)[Fuc(a1-3)]GlcNAc(b1-3)Gal(b1-4)[Fuc(a1-3)]GlcNAc(b1-3)Gal(b1-4)[Fuc(a1-3)]GlcNAc
# Procedure, shortened: as §1
# [18] = target: Neu5Ac(a2-3)Gal(b1-4)[Fuc(a1-3)]GlcNAc(b1-3)GalNAc
# Procedure, shortened: as §1
# [19] = target: Neu5Ac(a2-3)Gal(b1-4)[Fuc(a1-3)]GlcNAc(b1-6)[Gal(b1-3)]GalNAc
# Procedure, shortened: as §1
# [20] = target: Neu5Ac(a2-3)Gal(b1-4)[Fuc(a1-3)]GlcNAc(b1-6)[Neu5Ac(a2-3)Gal(b1-3)]GalNAc
# Procedure, shortened: as §1
# [21] = target: Neu5Ac(a2-3)Gal(b1-4)[Fuc(a1-3)]GlcNAc6S
# Procedure, shortened: as §1
# [22] = target: Neu5Ac(a2-3)Gal6S(b1-4)GlcNAc
# Procedure, shortened: as §1
# [23] = target: Neu5Ac(a2-3)Gal6S(b1-4)[Fuc(a1-3)]GlcNAc
# Procedure, shortened: as §1
# Neu5Ac(a2-3)GalNAc = target: Neu5Ac(a2-3)GalNAc
# Procedure, shortened: as §1
# [24] = target: Neu5Ac(a2-3)GalNAc(b1-4)GlcNAc
# Procedure, shortened: as §1
# [25] = target: Neu5Ac(a2-3)[GalNAc(b1-4)]Gal(b1-4)Glc
# Procedure, shortened: as §1
# [26] = target: Neu5Ac(a2-3)[GalNAc(b1-4)]Gal(b1-4)GlcNAc
# Procedure, shortened: as §1
# [27] = target: Neu5Ac(a2-3)[GalNAc(b1-4)]Gal(b1-4)GlcNAc(b1-3)GalNAc
# Procedure, shortened: as §1
# [28] = target: Neu5Ac(a2-3)[Neu5Ac(a2-6)]GalNAc
# Procedure, shortened: as §1
# Neu5Ac(a2-6)Gal = target: Neu5Ac(a2-6)Gal
# Procedure, shortened: as §1
# [29] = target: Neu5Ac(a2-6)Gal(b1-3)GlcNAc(b1-3)[Gal(b1-4)GlcNAc(b1-6)]Gal(b1-4)Glc
# Procedure, shortened: as §1
# Neu5Ac(a2-6)Gal(b1-4)Glc = target: Neu5Ac(a2-6)Gal(b1-4)Glc
# Procedure, shortened: as §1
# [30] = target: Neu5Ac(a2-6)Gal(b1-4)GlcNAc
# Procedure, shortened: as §1
# [31] = target: Neu5Ac(a2-6)Gal(b1-4)GlcNAc(b1-2)Man
# Procedure, shortened: as §1
# [32] = target: Neu5Ac(a2-6)Gal(b1-4)GlcNAc(b1-2)Man(a1-3)Man(b1-4)GlcNAc(b1-4)GlcNAc
# Procedure, shortened: as §1
# [33] = target: Neu5Ac(a2-6)Gal(b1-4)GlcNAc(b1-2)Man(a1-3)[Gal(b1-4)GlcNAc(b1-2)Man(a1-6)]Man(b1-4)GlcNAc(b1-4)GlcNAc
# Procedure, shortened: as §1
# [34] = target: Neu5Ac(a2-6)Gal(b1-4)GlcNAc(b1-2)Man(a1-3)[GlcNAc(b1-2)Man(a1-6)]Man(b1-4)GlcNAc(b1-4)GlcNAc
# Procedure, shortened: as §1
# [35] = target: Neu5Ac(a2-6)Gal(b1-4)GlcNAc(b1-2)Man(a1-3)[GlcNAc(b1-4)][Neu5Ac(a2-6)Gal(b1-4)GlcNAc(b1-2)Man(a1-6)]Man(b1-4)GlcNAc(b1-4)GlcNAc
# Procedure, shortened: as §1
binder,measurement,setting,value
B1,glycan array binding signal (z-score),[1],0.083
same,glycan array binding signal (z-score),[2],1.32
same,glycan array binding signal (z-score),[3],-0.513
same,glycan array binding signal (z-score),[4],-0.332
same,glycan array binding signal (z-score),[5],-0.196
same,glycan array binding signal (z-score),[6],0.395
same,glycan array binding signal (z-score),[7],-1.44
same,glycan array binding signal (z-score),[8],-0.819
same,glycan array binding signal (z-score),[9],-0.683
same,glycan array binding signal (z-score),[10],0.141
same,glycan array binding signal (z-score),[11],-0.868
same,glycan array binding signal (z-score),[12],1.4
same,glycan array binding signal (z-score),[13],0.346
same,glycan array binding signal (z-score),[14],-0.404
same,glycan array binding signal (z-score),[15],0.474
same,glycan array binding signal (z-score),[16],0.097
same,glycan array binding signal (z-score),[17],1.65
same,glycan array binding signal (z-score),[18],3.76
same,glycan array binding signal (z-score),[19],-0.41
same,glycan array binding signal (z-score),[20],-0.14
same,glycan array binding signal (z-score),[21],1
same,glycan array binding signal (z-score),[22],-0.164
same,glycan array binding signal (z-score),[23],0.085
same,glycan array binding signal (z-score),Neu5Ac(a2-3)GalNAc,-0.649
same,glycan array binding signal (z-score),[24],0.215
same,glycan array binding signal (z-score),[25],-1.38
same,glycan array binding signal (z-score),[26],-0.606
same,glycan array binding signal (z-score),[27],0.281
same,glycan array binding signal (z-score),[28],-0.854
same,glycan array binding signal (z-score),Neu5Ac(a2-6)Gal,-0.241
same,glycan array binding signal (z-score),[29],-0.524
same,glycan array binding signal (z-score),Neu5Ac(a2-6)Gal(b1-4)Glc,-0.555
same,glycan array binding signal (z-score),[30],-0.599
same,glycan array binding signal (z-score),[31],-0.15
same,glycan array binding signal (z-score),[32],-0.917
same,glycan array binding signal (z-score),[33],0.208
same,glycan array binding signal (z-score),[34],1.89
same,glycan array binding signal (z-score),[35],-1.02

# 2 entries drawn at random from the list so far, as already listed:
binder,measurement,setting,value
B1,glycan array binding signal (z-score),[4],-0.332
same,glycan array binding signal (z-score),[17],1.65
